The target of the data set is His-OsMADS25 (Oryza sativa) (UniProt Q84NC5). The data set is described as follows: EMSA. The settings on record: 5 mM Mg2+; 10 mM Tris pH 7.5, 50 mM KCl, 1 mM DTT, 2.5% glycerol, 5 mM MgCl2, 0.05% NP-40, 50 ng/ul poly(dI-dC), 30 ng protein, 400 fmol probe in 20 ul; recombinant protein; residues 1-227; protein details: His (pET32a fusion); label: biotin 3' end.

Amino acid sequences for entries named in this document (tags omitted). A change or cut given only in a name is not applied to a line headed by its entry.
UniProt Q84NC5: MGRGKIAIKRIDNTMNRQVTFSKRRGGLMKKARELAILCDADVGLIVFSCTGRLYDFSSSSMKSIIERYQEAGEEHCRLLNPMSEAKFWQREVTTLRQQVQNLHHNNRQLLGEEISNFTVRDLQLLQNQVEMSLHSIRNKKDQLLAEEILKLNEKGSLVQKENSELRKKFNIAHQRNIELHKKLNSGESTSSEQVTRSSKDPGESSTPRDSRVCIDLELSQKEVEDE

A weaker result is weaker than the reference pair of the same experiment.

Take “CATGCTGTGATAAATTAATATTTGACCAGCC (double strand) [Mut-OsGST4 probe]”: the binding result was “binds more weakly”.

(Values after PMC6197697.)
